Source: PMC10304164, “Laurequinone, a Lead Compound against Leishmania” (Marine Drugs, 2023)

Experiments:
[1] = tested on: Leishmania amazonensis promastigotes; test: Alamar Blue assay against promastigotes; assay type: cell-based; settings: CC50 murine macrophages / IC50 promastigotes
Protocol: Leishmania amazonensis (MHOM/BR/77/LTB0016) promastigotes were cultured in RPMI 1640 medium (Gibco, Waltham, MA, USA), supplemented with 10 % FBS at 26 °C. Additionally, for maintenance, the promastigotes were cultured in SND medium (Sigma-Aldrich, Darmstadt, Germany) supplemented with 10 % FBS at 26 °C. Both media were supplemented with gentamicin at 10 µg/mL.
Compounds 1–5 were tested against promastigotes of Leishmania amazonensis using the colorimetric assay based on the Alamar Blue® reagent. In a 96-well plate, serial dilutions of the compounds and the promastigote form of the parasite (10^6 cells/mL) were added at a final volume of 200 µL.

[2] = tested on: L. amazonensis intracellular amastigotes; test: Alamar Blue assay against intracellular amastigotes in murine macrophages; assay type: cell-based, Leishmania amazonensis; settings: CC50 murine macrophages / IC50 amastigotes
Protocol: Briefly, in a 96-well plate, murine macrophages (2 × 10^5 cells/mL) were incubated in RPMI medium at 37 °C and 5 % CO2 atmosphere for 2–4 h. Promastigote forms of L. amazonensis (2 × 10^6 cells/mL) were added to reach a 1:10 macrophage:parasite ration, and after 24 h of incubation, the cells were washed to discard the not-introduced parasites. Serial dilutions of the compound were added in 100 µL of RPMI medium. Following 24 h of incubation, the plate was washed, and the cells were broken with SDS 0.05% for 30 s. Fresh medium was added, and 48 h later, 10% Alamar Blue® reagent was added.

Row | Structure (SMILES) | SI (promastigotes) [1] | SI (amastigotes) [2]
1 | Cc1cc(O)c([C@]2(C)CC[C@@H]3C[C@@]32C)cc1Br [Laurinterol (2), laurinterol] | 2.3 | 2.3
2 | C=C1[C@@H](C)CC[C@@]1(C)c1cc(Br)c(C)cc1O [Isolaurinterol (4), isolaurinterol] | 2.4 | –
3 | Cc1cc2c(cc1Br)[C@]1(C)CC[C@H](C)[C@]1(C)O2 [Aplysin (5), aplysin] | 20.3 | –
